According to patent US8754051B2, “Peptide modulators of the δPKC interaction with the d subunit of F1Fo ATP synthase/ATPase and uses thereof” (Georgia Regents Research Institute, Inc., priority 2009, dated 2014):
Part of at least one peptide drawing is inferred or uncertain, most often the ends. Peptide text beside a SMILES is read from it.

Protein sequences, listed by entry. Tags and fused reporters are not part of them. Lines headed by an entry give the natural chain unless they say otherwise; changes in a name come on top.
UniProt P09215: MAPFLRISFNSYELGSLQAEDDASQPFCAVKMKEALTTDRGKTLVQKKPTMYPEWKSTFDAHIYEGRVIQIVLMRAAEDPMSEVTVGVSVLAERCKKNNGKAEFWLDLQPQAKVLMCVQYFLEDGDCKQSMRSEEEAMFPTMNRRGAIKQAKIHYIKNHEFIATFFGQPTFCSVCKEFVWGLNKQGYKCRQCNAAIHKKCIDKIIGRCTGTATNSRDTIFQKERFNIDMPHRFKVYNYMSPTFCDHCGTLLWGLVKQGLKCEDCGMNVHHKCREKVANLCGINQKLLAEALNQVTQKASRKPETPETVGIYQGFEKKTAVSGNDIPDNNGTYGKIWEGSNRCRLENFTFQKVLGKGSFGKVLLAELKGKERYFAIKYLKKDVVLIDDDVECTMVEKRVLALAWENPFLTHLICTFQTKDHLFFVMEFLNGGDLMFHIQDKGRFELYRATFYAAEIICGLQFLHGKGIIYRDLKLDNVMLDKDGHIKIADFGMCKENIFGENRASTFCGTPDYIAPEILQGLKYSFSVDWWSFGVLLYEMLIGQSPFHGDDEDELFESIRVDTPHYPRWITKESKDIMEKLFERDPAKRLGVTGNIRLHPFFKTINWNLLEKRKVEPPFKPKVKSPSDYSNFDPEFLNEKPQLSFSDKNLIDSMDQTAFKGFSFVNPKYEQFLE

Target: T1, δPKC binding to dF1Fo (Rattus norvegicus, UniProt P09215)
T1 construct: with purified rat brain PKC (mixture of PKC isozymes); from tissue; host or cells: PKC from rat brain; F1Fo ATPase holo-enzyme from adult rat cardiac ventricle
Experiment: PKC overlay binding assay
Details: overlay with purified PKC isozymes, DG/PS

SMILES	effect on δPKC-dF1Fo binding interaction
CC[C@H](C)[C@H](NC(=O)[C@@H](NC(=O)[C@H](CCCCN)NC(=O)[C@H](CC(C)C)NC(=O)[C@H](C)NC(=O)[C@H](CC(C)C)NC(=O)[C@H](CCCCN)NC(=O)[C@H](CCCNC(=N)N)NC(=O)CNC(=O)[C@H](C)N)[C@@H](C)O)C(=O)N[C@@H](CC(=O)O)C(=O)N[C@@H](Cc1c[nH]c2ccccc12)C(=O)N[C@H](C(=O)N[C@@H](CO)C(=O)N[C@@H](Cc1ccccc1)C(=O)O)C(C)C [SEQ ID NO: 1, AGRKLALKTIDWVSF] (H-AGRKLALKTIDWVSF-OH; N-terminus and C-terminus assumed)	dose-dependent inhibition
CC[C@H](C)[C@H](NC(=O)[C@H](CCSC)NC(=O)[C@H](CC(N)=O)NC(=O)[C@H](CCCCN)NC(=O)[C@@H](NC(=O)[C@H](CCCCN)NC(=O)[C@H](CCC(=O)O)NC(=O)[C@H](CC(C)C)NC(=O)[C@H](CCC(N)=O)NC(=O)[C@H](CCCCN)NC(=O)[C@H](CCC(=O)O)NC(=O)[C@H](Cc1ccc(O)cc1)NC(=O)[C@H](CCC(=O)O)NC(=O)[C@H](CCCNC(=N)N)NC(=O)[C@@H](NC(=O)[C@@H](N)CCCNC(=N)N)C(C)C)[C@@H](C)CC)C(=O)O [SEQ ID NO: 2, RVREYEKQLEKIKNMI] (H-RVREYEKQLEKIKNMI-OH; N-terminus and C-terminus assumed)	facilitates the binding
